Results are given in words; binding and its absence hold for the method and conditions named. Binding seen in cells or lysates may run through a third protein.
Target: T1, NOXA, wild type, transfected (UniProt Q13794)
T1 sequence: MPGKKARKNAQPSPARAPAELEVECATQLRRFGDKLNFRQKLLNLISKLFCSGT
Experiment: co-IP; exogenous co-IP: anti-FLAG IP from whole-cell lysate of 293T cells transfected with plasmids for both partners, western blot; which partner bore FLAG is not given

With “WSB2 with the SOCS box deleted (domain or fragment)” the binding was “no binding”.
